# ± gives the standard deviation of the averaged measurements. Most values lie at the floor of the assay. Slopes are relative: functional sequences can read slightly below zero.
# System: Saccharomyces cerevisiae PS128 hsf1 delta, HSF1(1-493) fusion
# Assay: growth estimate (transactivation domain function in HSF1 fusion, heat-shock survival) (a.u. (slope of normalised read count over time)); higher = stronger growth at 37°C, i.e. more transactivation activity
# Conditions: library: random library
row,Substance,growth estimate
1,VDQGYSITEHKARSNKYDTP,< -0.25
2,VDQRKSPKV,< -0.25
3,VDRLAICLASSMFVLNSLRG,< -0.25
4,VDRRPE,-0.246
5,VDTCLASRRVSKQGSAWHAM,< -0.25
6,VDVESNPYL,< -0.25
7,VDVIQPSDTVTALSGIPIRV,< -0.25
8,VDVWDWKGSWRAEGKVDALQ,< -0.25
9,VDWRWTPTVLADRQATYSGK,< -0.25
10,VDYQILCDNTQSGVEGGLRS,< -0.25
11,VEARGRTCRGVPPIVLWGSG,< -0.25
12,VEASTDTPIACFSHGCRSGQ,< -0.25
13,VED,-0.25
14,VEENIPYMRPSVSCRTVVMC,< -0.25
15,VEFRLTPRRRVAILPTSSRH,< -0.25
16,VEGCGLRKNQVQ,< -0.25
17,VEGLHVDGWEPPCARTTLLA,< -0.25
18,VEGVGFLIARAI,< -0.25
19,VEILFKGHL,< -0.25
20,VEKSEHGVSATRQAKGRRTT,< -0.25
21,VELFPYAAF,< -0.25
22,VELIKAPYLVLLTLGLRGFQ,< -0.25
23,VELRGPQALQVI,< -0.25
24,VELSRGHQLKKRGVYLHASA,< -0.25
25,VENGLNHRFWLRQDGRRNLE,< -0.25

row,Substance,growth estimate
1,VEPLMVNCGSINRD,< -0.25
2,VERITLWHQVRVERGI,< -0.25
3,VERPSPHVVGVLWWHHPTGA,< -0.25
4,VESGASLGHRTV,< -0.25
5,VETGSSIFNRAGAKCPSLRY,< -0.25
6,VETLCRRQS,< -0.25
7,VETLTYGTESGIRVAMVSPG,< -0.25
8,VEVATLASSQVSLYLYRRLP,< -0.25
9,VEVVGYSGGSN,< -0.25
10,VEVWIPNLDEDNQEINLIVP,< -0.25
11,VFCQISDRVLDGTHPAILFH,< -0.25
12,VFDLVPGNPATE,< -0.25
13,VFDVSAWG,0.0415
14,VFEPLSVVTRRAVLQRTVEA,< -0.25
15,VFGCLELGFISSGRTLTVLH,< -0.25
16,VFGLPCPARGTYLRAAS,< -0.25
17,VFGVRPRPWGLVPQRVVVPA,< -0.25
18,VFKQAQGQSLDTLPRRRYKS,< -0.25
19,VFLARALRYRTPVLDNASAP,< -0.25
20,VFLQIRRIP,< -0.25
21,VFMMSMGEQALSENGEAIWV,< -0.25
22,VFNCQLLSSGVVNTDSTILP,< -0.25
23,VFRDLFYRFVYIQG,< -0.25
24,VFSGSGEVGLLGHQSGFTRV,< -0.25
25,VFSQVERVFPLDSKRSVTWP,< -0.25

row,Substance,growth estimate
1,VFSSGTRSITAATRFFDSFA,< -0.25
2,VFTHDGVGSMGSTGSGRRRC,< -0.25
3,VFVAVA,< -0.25
4,VGAEVTGISSDEFLLLPAIP,< -0.25
5,VGARQTSLVRYPTSSLRIGR,< -0.25
6,VGAVDCCGEGG,< -0.25
7,VGCAQLIYYEAL,< -0.25
8,VGCGTSGCLRPNG,< -0.25
9,VGCNYLGE,< -0.25
10,VGCQDRDRFQSHYVAQSQSR,< -0.25
11,VGCRRT,< -0.25
12,VGEIKSTRLPRVQ,< -0.25
13,VGEKLEGHGRDLWGSGVGFV,< -0.25
14,VGERDWTHVDV,< -0.25
15,VGERPRSSQAKVCLCDSLPT,< -0.25
16,VGETGGSREVI,-0.196
17,VGFFAQKKCLEIIHYSAFWV,< -0.25
18,VGFGTMESSTLLINVILPHR,< -0.25
19,VGFLASLRTPPSCDGHVGSG,< -0.25
20,VGFTHSACSSAVPYQSGYP,< -0.25
21,VGGFDDMQKPASFGASMSRY,< -0.25
22,VGGFKHYSSMWLYWLSRLDG,< -0.25
23,VGGIEPWSALGRLGEGTSSH,< -0.25
24,VGGQLFTVQC,< -0.25
25,VGGRACTWSIIPA,< -0.25

row,Substance,growth estimate
1,VGHDRSSCGNAIAEVVCFSP,< -0.25
2,VGHYC,< -0.25
3,VGI,< -0.25
4,VGIAEEAQGWFPVGTSLRYR,< -0.25
5,VGIEKMQST,< -0.25
6,VGKGLGNGVGLPWVS,< -0.25
7,VGLEPG,< -0.25
8,VGLGRVDTKRCTFDCTLSEE,< -0.25
9,VGLQGRQGPSIT,< -0.25
10,VGLRAIHELLIAIDV,< -0.25
11,VGLRNSTQPSTGTKNVGCKY,< -0.25
12,VGLTEY,< -0.25
13,VGMTEAKVLLCSMYKGVLAG,< -0.25
14,VGNLAAEPG,-0.246
15,VGNQLGI,< -0.25
16,VGP,< -0.25
17,VGPGYVAIAVLNPKVV,< -0.25
18,VGPWLGNPLCHAHAGIAPYA,< -0.25
19,VGRHSVSCADGIRPIKQPYA,< -0.25
20,VGRRIWWASRAGQWLGRSDL,< -0.25
21,VGRSSKREGRLK,< -0.25
22,VGS,< -0.25
23,VGSLLDGIWLARGH,< -0.25
24,VGSMTGWTASDLL,< -0.25
25,VGSNRVQRR,< -0.25

# Pulled one by one from the list above, 4 records:
row,Substance,growth estimate
17,VGPGYVAIAVLNPKVV,< -0.25
1,VGHDRSSCGNAIAEVVCFSP,< -0.25
21,VGRSSKREGRLK,< -0.25
4,VGIAEEAQGWFPVGTSLRYR,< -0.25

# For convenience, part of the list above:
row,Substance,growth estimate
22,VGS,< -0.25
23,VGSLLDGIWLARGH,< -0.25
24,VGSMTGWTASDLL,< -0.25
25,VGSNRVQRR,< -0.25

# Further records

row,Substance,growth estimate
1,VGSRIEVCR,< -0.25
2,VGSVQGN,< -0.25
3,VGTCACFKIQESPWNHLITD,< -0.25
4,VGTCSGQKLKTSRVYGTKLS,< -0.25
5,VGTNASADG,< -0.25
6,VGTPRRRSSSACCEMDSTHS,< -0.25
7,VGTRNLSHVLLR,< -0.25
8,VGTRNRTV,-0.198
9,VGV,< -0.25
10,VGVF,< -0.25
11,VGVL,< -0.25
12,VGVRAARAFVNDRFVFEMRY,< -0.253
13,VGVRSQYAGAVRLGSAGFEF,< -0.25
14,VGVTGRLAREFPSGPL,< -0.25
15,VGWAELVYSFPRRSRILSSH,< -0.25
16,VGWGAYGHAGENVIEWVKGR,< -0.25
17,VGWHRRY,< -0.25
18,VGWRFVKAFYRDMWDGRIWS,< -0.25
19,VHC,< -0.25
20,VHE,-0.0625
21,VHGVHGMRLTLKLHQGPYFR,< -0.25
22,VHI,< -0.25
23,VHLHMAFAR,< -0.25
24,VHLRGVRSLSAGGSVA,< -0.25
25,VHLSDLDWWPKGLAQKAFDQ,< -0.25

row,Substance,growth estimate
1,VHPDMSSGLNP,< -0.25
2,VHPTGMTISPRWTTMGQLLT,< -0.25
3,VHPVCLSFSLTL,< -0.25
4,VHR,-0.247 ± 0.0037
5,VHRISANYESETSRVDGSTR,< -0.25
6,VHRQLLHFGMIRPGFPSQYR,< -0.25
7,VHRVSRRV,< -0.25
8,VHS,< -0.25
9,VHSKPAR,< -0.25
10,VHSRYLSEGYGHGHSQHMIA,< -0.25
11,VHSVIRCSLVRIAVECSLGP,< -0.25
12,VHTKFAKVRAGKVQSRTWTR,-0.241
13,VHVHGRQLSLITDSNNM,< -0.25
14,VHYLSGVGLFMA,< -0.25
15,VIAIVLSKCPFSVTIR,< -0.25
16,VICISAHRVEFNVRDSILGE,< -0.25
17,VICKTRGMGKDSCLCVNRC,< -0.25
18,VID,< -0.25
19,VIDTDRSGVVRKVVDHRPPA,-0.112
20,VIDVVT,< -0.25
21,VIELTHIGKLQMPGI,< -0.25
22,VIEVLTGPDDRSVKASYTSP,< -0.25
23,VIGQQTRP,< -0.25
24,VIGR,< -0.25
25,VIGSFTGSARRDLVHRH,< -0.25

# Some values from above:
# Entry for VIGR under growth estimate: < -0.25
# Entry for VHYLSGVGLFMA under growth estimate: < -0.25
# Entry for VHSRYLSEGYGHGHSQHMIA under growth estimate: < -0.25
# Entry for VIDVVT under growth estimate: < -0.25
# Entry for VIELTHIGKLQMPGI under growth estimate: < -0.25
# Entry for VHRQLLHFGMIRPGFPSQYR under growth estimate: < -0.25

# More records:

row,Substance,growth estimate
1,VIGSP,< -0.25
2,VIHTWKLDFGGVIEQLRGLR,< -0.25
3,VIHWAGKFMQYTALSIRKEP,< -0.25
4,VIKGAADLRDVHSVGIEPWG,< -0.25
5,VIL,< -0.25
6,VIMGLEWSLVFQP,< -0.25
7,VINMP,< -0.25
8,VINPN,< -0.25
9,VIPTFIKYRSIDMRRLHISS,< -0.25
10,VIRACTLGSGFAKSTTYWHR,< -0.25
11,VIRCR,< -0.25
12,VIRFYSVLSLPHYRVMPLGC,< -0.25
13,VIRGMFRRYVFSTTTT,< -0.25
14,VIRPGGVGPCQG,< -0.25
15,VISPEE,< -0.25
16,VISSLTYLARRDLLKSAHNP,< -0.25
17,VITGLG,< -0.25
18,VITISHNCSQIRIRRVNLYS,< -0.25
19,VITSEYVMLE,< -0.25
20,VITYS,< -0.25
21,VIVEVSPQSGYHVVMALTGY,< -0.25
22,VIVFLDSKIHSSKR,< -0.25
23,VIWVPGFG,< -0.25
24,VIYMH,< -0.25
25,VKAEYRVILTRLLSDIESPK,< -0.25

row,Substance,growth estimate
1,VKALLQNGGGC,< -0.25
2,VKARLYTTEALLSSVQRTMN,< -0.25
3,VKATFRRADWGLVACLRPGP,< -0.25
4,VKAYGTARDQSHVPTA,< -0.25
5,VKCFGWGTHHLRNDLVRFTR,< -0.25
6,VKCVRAPPVPCMRYPPQTPA,< -0.25
7,VKDSGQCYANHGQLICRRDP,< -0.25
8,VKLGVGSDRKTDPYID,< -0.25
9,VKLPARSSNGLVQLH,< -0.25
10,VKLR,< -0.25
11,VKLSRAEQIEGYLVVTSHGM,< -0.25
12,VKLVATQCYL,< -0.25
13,VKNDFRNETTQTIKVWPT,< -0.25
14,VKPTTWCTWWVVCVSCRSPT,< -0.25
15,VKQFVWTRSLGTAGTWSPTS,< -0.25
16,VKRNGI,< -0.25
17,VKRVG,< -0.25
18,VKRVPKNGPSS,< -0.25
19,VKSGYLPSLNGLATV,< -0.25
20,VKSLYPSESTEFFGAVVRVH,< -0.25
21,VKSRVNC,< -0.25
22,VKTWVPGLSREVLAELQRLR,< -0.25
23,VKVEYTS,< -0.25
24,VKVRDFILNTITT,< -0.25
25,VKVWSVDLRFDMGVPGYVVG,< -0.25

# Reference: the supplement of paper PMC5949888
